25 molecules from US20250257130A1 (NONA BIOSCIENCES SUZHOU, published 2025) can be followed below.

Protein sequences, listed by entry. Tags and fused reporters are not part of them. Residues count along the entry.
UniProt Q01973, residues 30-937: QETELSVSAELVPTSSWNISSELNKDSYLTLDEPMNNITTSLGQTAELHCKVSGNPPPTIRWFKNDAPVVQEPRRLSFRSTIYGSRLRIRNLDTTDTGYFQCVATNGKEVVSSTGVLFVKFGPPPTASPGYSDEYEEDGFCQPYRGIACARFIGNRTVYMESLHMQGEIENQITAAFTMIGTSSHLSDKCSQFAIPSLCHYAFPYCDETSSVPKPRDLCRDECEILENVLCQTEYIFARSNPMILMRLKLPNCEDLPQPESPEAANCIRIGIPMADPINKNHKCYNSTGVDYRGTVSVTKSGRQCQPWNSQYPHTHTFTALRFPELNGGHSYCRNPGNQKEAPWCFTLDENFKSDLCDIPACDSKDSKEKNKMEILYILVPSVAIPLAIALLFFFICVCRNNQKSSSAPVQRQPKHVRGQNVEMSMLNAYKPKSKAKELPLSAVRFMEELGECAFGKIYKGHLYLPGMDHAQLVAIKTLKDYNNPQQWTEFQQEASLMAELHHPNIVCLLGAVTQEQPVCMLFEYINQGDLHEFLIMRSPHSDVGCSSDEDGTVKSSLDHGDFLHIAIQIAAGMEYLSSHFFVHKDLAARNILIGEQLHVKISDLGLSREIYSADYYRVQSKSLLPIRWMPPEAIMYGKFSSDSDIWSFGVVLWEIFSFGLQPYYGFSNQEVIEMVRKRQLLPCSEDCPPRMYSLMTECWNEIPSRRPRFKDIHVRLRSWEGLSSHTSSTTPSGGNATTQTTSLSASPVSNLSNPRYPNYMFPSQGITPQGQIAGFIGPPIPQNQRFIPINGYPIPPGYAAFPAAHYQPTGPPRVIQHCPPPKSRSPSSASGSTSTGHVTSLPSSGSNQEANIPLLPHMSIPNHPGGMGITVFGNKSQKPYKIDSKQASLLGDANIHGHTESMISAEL

For experiment [1], the target named is human ROR1 on cells (HEK293T-hROR1, PANC-1, A549) (human) (UniProt Q01973). In words: flow cytometry, PANC-1 cells. On the technique in general: Flow cytometry measures light scatter and fluorescence of single cells or particles in a stream.
For experiment [2], the target named is cynomolgus ROR1 on CHO-K1-cynoROR1 cells (cynomolgus monkey). Kind of experiment: flow cytometry, CHO-K1-cynoROR1 cells.
In experiment [3] the target is human ROR1 on cells (HEK293T-hROR1, PANC-1, A549) (human) (UniProt Q01973). Kind of experiment: flow cytometry on PANC-1 cells, MFI (APC-A Median).
The target in experiment [4] is cynomolgus ROR1 on CHO-K1-cynoROR1 cells (cynomolgus monkey). Kind of experiment: flow cytometry on CHOK1-cynoROR1 cells, MFI (APC-A Median) [top panel].
In experiment [5] the target is human ROR1 on cells (HEK293T-hROR1, PANC-1, A549) (human) (UniProt Q01973). In words: flow cytometry on PANC-1 cells, MFI (Median-APC) [middle panel, letter not given].
The target is the same in experiment [6]. In words: flow cytometry on PANC-1 cells, MFI (FITC-A Median).
Experiment [7] has as its target cynomolgus ROR1 on CHO-K1-cynoROR1 cells (cynomolgus monkey). In words: flow cytometry on CHOK1-cynoROR1 cells, MFI (APC-A Median) [middle panel, letter not given].
In experiment [8] the target is human ROR1 on cells (HEK293T-hROR1, PANC-1, A549) (human) (UniProt Q01973). Kind of experiment: flow cytometry on PANC-1 cells, MFI (Median-APC) [bottom panel, letter not given].

Results are given in words; binding and its absence hold for the method and conditions named. Some entries that bind do so weakly or less than the wild type.

B1: PR005341 (antibody, human IgG1, V domains shown)
VH: EVQLVESGGGLVKPGGSLRLSCVASGFTFSDYYMSWIRQAPGKGLEWISYISSSGSSIYYAESVKGRFTISRDNAKNSLYLQMNRLRAEDTALYYCARTPPSSDNWYEDFDYWGQGALVTVSS
notes: HCAb (heavy chain-only, human IgG1 Fc), no light chain
As for B1, the binding entry in experiment [1], in experiment [2], in experiment [3] and in experiment [4] was “binds” in each case.

B2: PR005337 (antibody, human IgG1, V domains shown)
VH: EVQLVESGGGLVKPGGSLRLSCAASGFIFSDYYMSWIRQAPGKGLEWVSYISSSGSTIHYADSVKGRFTVSRDNAKNSLYLQMNSLRTEDTAVYYCARDPPTSNSDWVSLHFDHWGQGTLVTVSS
notes: as for B1
B2: the binding entry in experiment [1], in experiment [2], in experiment [3] and in experiment [4] was “binds” each time.

B3: PR007417 (antibody, V domains shown)
VH: EVQLVESGGGLVKPGGSLRLSCAASGFTFSDFYMSWIRQAPGKGLEWISYISSSGSTRYYADSVKGRFTISRDNAKNSLYLQMNSLRAEDTAIYYCARDIPSSSSDWVDLQFDYWGQGTLVTVSS
notes: bivalent form (HCAb) variant of PR005340, no light chain
As for B3, the binding result in experiment [5] is reported as “binds”.

B4: PR005338 (antibody, human IgG1, V domains shown)
VH: EVQLVESGGGLVKPGGSLRLSCAASGFTFSDYYMSWIRQAPGKGLEWISYISSSGTTIHYADSVKGRFTISRDNAKNSLYLQMNSLRTEDTAVYYCARDAPSSNSDWVSLQFDYWGQGTLVTVSS
notes: as for B1
As for B4, the binding result in experiment [1], in experiment [2], in experiment [6] and in experiment [7] was “binds” in each case.

B5: PR007424 (antibody, V domains shown)
VH: EVQLVESGGGLVKPGGSLRLSCAASGFTFSDYYMSWIRQAPGKGLEWISYIDSSGRPLAYADSVKGRFTISRDNAKNSLYLQMNSLRAEDTAIYYCARDMPSSSSDWVSLQFDYWGQGTLVTVSS
notes: as for B3
Regarding B5, the binding result in experiment [8] is listed as “binds”.

B6: PR005345 (antibody, human IgG1, V domains shown)
VH: EVQLVESGGGLVKPGGSLRLSCAASGFTFSDYYMSWIRQAPGKGLEWIAYISSSGSTIHYSDSVKGRFTISRDNAKNSLYLQMNSLRAEDTAVYYCARDTPSSSSDWVSLQFDYWGQGTPVTVSS
notes: as for B1
Turning to B6, the binding entry in experiment [1], in experiment [2], in experiment [6] and in experiment [7] was “binds” each time.

B7: PR007414 (antibody, V domains shown)
VH: EVQLVESGGGLVKPGGSLRLSCAASGFTFSDFYMSWIRQAPGKGLEWISYISSSGSTRYYADSVKGRFTISRDNAKNSLYLQMNSLRAEDTAIYYCARDMPSSSSDWVDLQFDYWGQGTLVTVSS
notes: as for B3
For B7, the binding entry in experiment [5] is given as “binds”.

B8: PR007423 (antibody, V domains shown)
VH: EVQLVESGGGLVKPGGSLRLSCAASGFTFSDYYMSWIRQAPGKGLEWISYIDSSGRPLAYADSVKGRFTISRDNAKNSLYLQMNSLRAEDTAIYYCARDIPSSSSDWVDLQFDYWGQGTLVTVSS
notes: as for B3
B8: the binding entry in experiment [8] is reported as “binds”.

B9: PR005348 (antibody, human IgG1, V domains shown)
VH: EVQLVESGGGLVKPGGSLRLSCAASGFTFSDYYMSWIRQTPGKGLEWVSYISRSGSTKYYADSVKGRFTISRDNAKNSLYLQMNSLRAEDTAVYYCARDAPSSNSDWVSLHFDHWGQGTLVTVSS
notes: as for B1
Regarding B9, the binding entry in experiment [1], in experiment [2], in experiment [6] and in experiment [7] was “binds” each time.

B10: PR007416 (antibody, V domains shown)
VH: EVQLVESGGGLVKPGGSLRLSCAASGFTFSDFYMSWIRQAPGKGLEWISYINTRGSPIGYADSVKGRFTISRDNAKNSLYLQMNSLRAEDTAIYYCARDIPSSSSDWVDLQFDYWGQGTLVTVSS
notes: as for B3
As for B10, the binding entry in experiment [5] is recorded as “binds”.

B11: PR007419 (antibody, V domains shown)
VH: EVQLVESGGGLVKPGGSLRLSCAASGFTFSDFYMSWIRQAPGKGLEWISYINTRGSPIGYADSVKGRFTISRDNAKNSLYLQMNSLRAEDTAIYYCARDMPSSSSDWVSLQFDYWGQGTLVTVSS
notes: as for B3
With B11, the binding entry in experiment [8] is on record as “binds”.

B12: PR007420 (antibody, V domains shown)
VH: EVQLVESGGGLVKPGGSLRLSCAASGFTFSDFYMSWIRQAPGKGLEWISYISSSGSTRYYADSVKGRFTISRDNAKNSLYLQMNSLRAEDTAIYYCARDMPSSSSDWVSLQFDYWGQGTLVTVSS
notes: as for B3
As for B12, the binding entry in experiment [8] was “binds”.

B13: PR007413 (antibody, V domains shown)
VH: EVQLVESGGGLVKPGGSLRLSCAASGFTFSDFYMSWIRQAPGKGLEWISYINTRGSPIGYADSVKGRFTISRDNAKNSLYLQMNSLRAEDTAIYYCARDMPSSSSDWVDLQFDYWGQGTLVTVSS
notes: as for B3
In the case of B13, the binding entry in experiment [5] is reported as “binds”.

B14: PR007421 (antibody, V domains shown)
VH: EVQLVESGGGLVKPGGSLRLSCAASGFTFSDFYMSWIRQAPGKGLEWISYIDSSGRPLAYADSVKGRFTISRDNAKNSLYLQMNSLRAEDTAIYYCARDMPSSSSDWVSLQFDYWGQGTLVTVSS
notes: as for B3
B14: in experiment [8], the binding entry is given as “binds”.

B15: PR007422 (antibody, V domains shown)
VH: EVQLVESGGGLVKPGGSLRLSCAASGFTFSDFYMSWIRQAPGKGLEWISYIDSSGRPLAYADSVKGRFTISRDNAKNSLYLQMNSLRAEDTAIYYCARDIPSSSSDWVSLQFDYWGQGTLVTVSS
notes: as for B3
Consider B15, for which, in experiment [8], the binding result is given as “binds”.

B16: PR007418 (antibody, V domains shown)
VH: EVQLVESGGGLVKPGGSLRLSCAASGFTFSDFYMSWIRQAPGKGLEWISYIDSSGRPLAYADSVKGRFTISRDNAKNSLYLQMNSLRAEDTAIYYCARDIPSSSSDWVDLQFDYWGQGTLVTVSS
notes: as for B3
Take B16: the binding entry in experiment [5] is on record as “binds”.

B17: PR007415 (antibody, V domains shown)
VH: EVQLVESGGGLVKPGGSLRLSCAASGFTFSDFYMSWIRQAPGKGLEWISYIDSSGRPLAYADSVKGRFTISRDNAKNSLYLQMNSLRAEDTAIYYCARDMPSSSSDWVDLQFDYWGQGTLVTVSS
notes: as for B3
As to B17, the binding entry in experiment [5] is given as “binds”.

B18: PR005343 (antibody, human IgG1, V domains shown)
VH: EVQLVESGGGLVKPGGSLRLSCVASGFTFSDYYMSWIRQAPGKGMEWISYISSSGSTKNYANSVKGRFTISRDNAKNSLYLQMNSLRAEDTAAYYCARVPPYNASWYEDFDYWGQGTLVTVSS
notes: as for B1
As to B18, the binding entry in experiment [1], in experiment [2], in experiment [3] and in experiment [4] was “binds” each time.

B19: PR005347 (antibody, human IgG1, V domains shown)
VH: EVQLVESGGGLVKPGGSLRLSCVTSGFTFSDYYMSWIRQAPGKGMEWISYISTTGSTKNYANSVKGRFTISRDNAKSSLYLQMNSLRAEDTAAYYCARVPPSNASWYEDFDYWGQGTLVTVSS
notes: as for B1
Take B19: the binding result in experiment [1], in experiment [2], in experiment [3] and in experiment [4] was “binds” each time.

B20: PR303189 (antibody, human IgG1, V domains shown)
VH: EVQLVESGGGLVKPGGSLRLSCAASGFNLSDSYMSWIRQAPGKGLEWVSCISSSGSTIYYADSVKGRFTVSRDNAKNSLYLQMNHLRAEDTALYYCARDCVIGIRDDSDIWGQGTMVTVSS
notes: as for B1
On to B20, for which the binding result in experiment [2] is “binds”.

B21: PR005339 (antibody, human IgG1, V domains shown)
VH: EVQLVESGGGLVKPGGSLKLSCAASGFTFSDYYMSWIRQAPGKGVEWISYISNNGSTIHYADSVKGRFTISRDNAKNSLYLQMNSLRAEDTAVYYCARDFNNGWYEDFDYWGQGTLVTVSS
notes: as for B1
Turning to B21, the binding result in experiment [1], in experiment [2], in experiment [3] and in experiment [4] was “binds” in each case.

B22: PR005342 (antibody, human IgG1, V domains shown)
VH: EVQLVESGGGLVKPGGSLRLSCAASGFNFSDYYMSWIRQAPGKGLEWISYISNSSSTIYYADSVKGRFTISRDNAKNSLYLQMSRLRAEDTAMYYCARDTTNGWYEDFDYWGQGTLVTVSS
notes: as for B1
Regarding B22, the binding entry in experiment [1], in experiment [2], in experiment [3] and in experiment [4] was “binds” each time.

B23: PR303155 (antibody, human IgG1, V domains shown)
VH: EVQLVESGGGLVKPGGSLRLSCAASGFTLSDYYMSWIRQAPGKGLEWISYISSNGSTIYYADSVKGRFTISRDNARNSLYLQMNSLRAEDTALYYCARDVSSGWYEDFDYWGQGTLVTVSS
notes: as for B1
Take B23: the binding result in experiment [2] is given as “binds”.

B24: PR303199 (antibody, human IgG1, V domains shown)
VH: EVQLVESGGGLVKPGGSLRLSCAASGFTFSDYYMSWIRQAPGKGLEWIAYISSSGSTIYYADSVKGRFTISRDNAKNSLYLQMNSLRAEDTAIYYCAREYYGSENYDHFDYWGQGTLVTVSS
notes: as for B1
For the molecule B24, in experiment [2], the binding entry was “binds”.

B25: PR303145 (antibody, human IgG1, V domains shown)
VH: QVQLVESGGGLVKPGGSLRISCAASGFTFSNYNMSWIRQAPGKGVEWVSHISGSGRTIYYAESVKGRFTISRDNAKNSLYLQMNSLRAEDTAMYYCARDLSSGWYEDFDYWGQGTLVTVSS
notes: as for B1
In the case of B25, in experiment [2], the binding entry was “binds”.
